Results from publication PMC12667520, “SP3 and DEP1 Orchestrate Panicle Architecture by Jointly Regulating APO2 Expression in Rice”.
For some of these results: A negative result means that nothing was seen under these conditions. For some of these results: At least one verdict rests on a figure or table, not on a statement of the authors. Protein sequences can lack the tags named with them. Construct, isoform or probe ends are uncertain for at least one entry. For some of these results: A weaker result is weaker than the reference pair of the same experiment.

system: T1, SP3 (Dof15); test: competition with a labelled probe; conditions: unlabeled competitor vs biotin wild-type probe (EMSA); LightShift Chemiluminescent EMSA Kit (Thermo), manufacturer's instructions; pH and temperature not …; recombinant protein; protein details: GST (pGEX-6p)
T1 sequence (limits assumed): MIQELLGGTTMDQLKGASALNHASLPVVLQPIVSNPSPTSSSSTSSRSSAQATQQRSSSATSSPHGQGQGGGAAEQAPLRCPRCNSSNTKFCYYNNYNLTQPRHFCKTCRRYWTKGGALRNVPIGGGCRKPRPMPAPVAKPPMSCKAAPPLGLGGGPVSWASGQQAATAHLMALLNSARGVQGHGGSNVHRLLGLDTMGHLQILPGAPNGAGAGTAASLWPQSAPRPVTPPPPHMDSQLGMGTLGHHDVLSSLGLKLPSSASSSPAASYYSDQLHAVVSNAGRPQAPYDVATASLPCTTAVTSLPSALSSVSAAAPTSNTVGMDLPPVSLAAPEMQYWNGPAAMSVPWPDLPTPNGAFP

Row | Sequence | binding result
1 | ACGCATGCAGGAGTATCGTTTTTCTTCGGAAGAGGAACAG (double strand) [Probe-m3] | no binding
2 | ACGCATGCAGGAGTATCTTGTTTCTTCGGAAGAGGAACAG (double strand) [Probe-m5] | no binding
3 | ACGCATGCAGGAGTATCTTTGTTCTTCGGAAGAGGAACAG (double strand) [Probe-m6] | no binding
4 | ACGCATGCAGGAGTATATTTTTTCTTCGGAAGAGGAACAG (double strand) [Probe-m2] | no binding
5 | ACGCATGCAGGAGTATCTGTTTTCTTCGGAAGAGGAACAG (double strand) [Probe-m4] | no binding
6 | ACGCATGCAGGAGTACCTTTTTTCTTCGGAAGAGGAACAG (double strand) [Probe-m1] | binds

system: T1, SP3 (Dof15); test: EMSA; conditions: DEP1-MBP present; LightShift Chemiluminescent EMSA Kit (Thermo), manufacturer's instructions; pH and temperature not stated; recombinant protein; protein details: GST (pGEX-6p); label: biotin

Row | Sequence | binding result
7 | ACGCATGCAGGAGTATCTTTTTTCTTCGGAAGAGGAACAGTGAC (double strand) [Bio-Probe (APO2 promoter)] | binds more weakly
